At least one structure is not confirmed: it was looked up by name or label, or the drawing left a doubt.
Key:
Type in all cases: cell-based
[1] = molecular target: T1, GIPR (Homo sapiens, UniProt P48546); test: Selectivity over other GPCRs: GIPR (665/615 ratio)
T1 sequence (P48546 22-466): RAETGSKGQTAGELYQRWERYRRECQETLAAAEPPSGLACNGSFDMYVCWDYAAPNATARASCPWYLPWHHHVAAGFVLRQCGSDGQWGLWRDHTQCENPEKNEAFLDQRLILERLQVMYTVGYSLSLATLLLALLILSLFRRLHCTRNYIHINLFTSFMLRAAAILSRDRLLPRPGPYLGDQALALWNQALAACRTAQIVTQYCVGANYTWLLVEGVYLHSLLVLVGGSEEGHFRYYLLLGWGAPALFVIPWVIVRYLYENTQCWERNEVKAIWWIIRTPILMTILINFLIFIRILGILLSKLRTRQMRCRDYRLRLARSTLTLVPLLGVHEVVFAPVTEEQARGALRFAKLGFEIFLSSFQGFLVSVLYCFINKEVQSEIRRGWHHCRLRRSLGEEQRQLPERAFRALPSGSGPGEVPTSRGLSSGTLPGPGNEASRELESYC

Chains of the proteins cited; added tags and fusions are not shown. Residues count along the entry.
UniProt P47871, 26-477, species assumed: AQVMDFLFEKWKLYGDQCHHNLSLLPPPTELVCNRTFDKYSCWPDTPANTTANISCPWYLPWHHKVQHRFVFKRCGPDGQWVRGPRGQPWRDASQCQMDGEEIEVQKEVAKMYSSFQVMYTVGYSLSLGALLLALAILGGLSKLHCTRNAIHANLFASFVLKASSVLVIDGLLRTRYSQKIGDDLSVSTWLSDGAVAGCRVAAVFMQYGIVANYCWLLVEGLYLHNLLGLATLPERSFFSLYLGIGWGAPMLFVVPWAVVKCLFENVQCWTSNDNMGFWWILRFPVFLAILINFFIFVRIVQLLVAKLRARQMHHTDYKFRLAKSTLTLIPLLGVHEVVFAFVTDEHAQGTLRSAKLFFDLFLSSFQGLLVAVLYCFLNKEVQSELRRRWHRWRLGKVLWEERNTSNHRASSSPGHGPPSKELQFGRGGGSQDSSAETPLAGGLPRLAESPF
UniProt P43220, 24-463, species assumed: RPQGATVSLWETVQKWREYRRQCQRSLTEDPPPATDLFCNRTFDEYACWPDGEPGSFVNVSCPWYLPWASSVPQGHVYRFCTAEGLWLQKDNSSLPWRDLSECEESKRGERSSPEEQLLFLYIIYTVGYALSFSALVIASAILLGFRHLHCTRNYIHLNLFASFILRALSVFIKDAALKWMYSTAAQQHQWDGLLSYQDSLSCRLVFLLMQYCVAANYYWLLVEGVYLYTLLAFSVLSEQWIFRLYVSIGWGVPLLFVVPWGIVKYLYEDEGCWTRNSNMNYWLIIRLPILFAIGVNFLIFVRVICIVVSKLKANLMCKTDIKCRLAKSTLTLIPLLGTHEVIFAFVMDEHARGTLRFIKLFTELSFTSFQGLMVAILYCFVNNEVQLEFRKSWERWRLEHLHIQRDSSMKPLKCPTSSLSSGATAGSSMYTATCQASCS

[2] = molecular target: GCGR (Homo sapiens, UniProt P47871); test: Selectivity over other GPCRs: GCGR (665/615 ratio)
[3] = molecular target: GLP-1R (Homo sapiens, UniProt P43220); test: Selectivity over other GPCRs: GLP-1R (665/615 ratio)

Measured: IC50

CC[C@H](C)[C@H](NC(=O)[C@H](Cc1ccccc1)NC(=O)[C@H](CC(=O)O)NC(=O)[C@H](CCCN=C(N)N)NC(=O)[C@H](C)NC(=O)[C@H](C)NC(=O)[C@H](CC(C)C)NC(=O)[C@H](CC(N)=O)NC(=O)[C@H](CC(=O)O)NC(=O)[C@H](CC(C)C)NC(=O)[C@@H](NC(=O)[C@@H](NC(=O)[C@H](CC(N)=O)NC(=O)[C@H](CCSC)NC(=O)[C@H](CCC(=O)O)NC(=O)[C@H](CC(=O)O)NC(=O)[C@H](CO)NC(=O)[C@H](Cc1ccccc1)NC(=O)[C@H](CO)NC(=O)CNC(=O)[C@H](CC(=O)O)NC(=O)[C@H](C)NC(=O)[C@@H](N)Cc1cnc[nH]1)[C@@H](C)O)[C@@H](C)CC)C(=O)N[C@@H](CC(N)=O)C(=O)N[C@@H](Cc1c[nH]c2ccccc12)C(=O)N[C@@H](CC(C)C)C(=O)N[C@H](C(=O)N[C@@H](CCC(N)=O)C(=O)N[C@H](C(=O)N[C@@H](CCCCN)C(=O)N[C@H](C(=O)N[C@H](C(=O)N[C@@H](CC(=O)O)C(=O)O)[C@@H](C)O)[C@@H](C)CC)[C@@H](C)O)[C@@H](C)CC [GLP-2]
> 500 nM: all assays above

Source: US20230057847A1, “GLP2 RECEPTOR AGONISTS AND METHODS OF USE” (The Scripps Research Institute, priority 2019, published 2023)
